# At least one structure is not confirmed: it was looked up by name or label, or the drawing left a doubt.
# Test system: PC12 neuronal cells
# Assay: Neurite outgrowth in NGF-differentiated PC12 neuronal cell cultures (Calcein-AM/Hoechst imaging)
# Format: cell-based
# Settings: alone or combined
# Method: In order to assess the effects of nutritional components on axonal outgrowth and dendritic arborization underlying functional brain connectivity, the effects of nutrient supplementation on neurite outgrowth parameters in PC12 pheochromocytoma cells was investigated. PC12 neuronal cell model is one of the most widely used cell models for the study of neuronal differentiation. PC12 pheochromocytoma cells were grown in DMEM (Gibco), supplemented with 10% fetal bovine serum (FBS), penicillin (100 units/ml), and streptomycin (100 μg/ml) (Gibco), under a humidified atmosphere with 95% air and 5% CO2 at 37° C. Cells were seeded onto a collagen (0.01 mg/ml) coated 96-well plates at a density of 5000 cells/well and after 24 hours supplemented with medium containing 20 ng/ml nerve growth factor (NGF) with or without the components as defined in the present and in the following examples. Cell cultures were incubated at 37° C. in 5% CO2 and medium was replaced every 2-3 days. DHA and EPA were resuspended in absolute ethanol and diluted 5 times in fetal bovine serum. Other compounds were dissolved in DMEM. All compounds were purchased from Sigma (Zwijndrecht, The Netherlands). Supplementation of cells was performed in 6-fold in 96 wells plates. Neurite outgrowth of these conditions was compared to non-supplemented cells. After 48 hours of nutrient supplementation, cell bodies and neurites were stained using Calcein-AM stain (0.2 μg/ml) (Invitrogen, batch #C3100MP) and the nuclei were counterstained using Hoechst stain (1.2 μg/ml) (Thermo Scientific, batch #62249) in 100 μl culture medium per well and incubated for 20 min at 37° C. Subsequently, FITC and DAPI images (9 images per well, 6 wells per condition) were taken using an ImageXpress Micro Confocal high content imaging system (Molecular Devices). Neurite length was quantified using the neurite outgrowth module in MetaXpress. […] The data was normalized to and expressed as a relative percentage of the plate-averaged value of the vehicle-treated control wells.
# [1] = FIG. 1 plate: DHA 6.7 μM, EPA 10 μM, vitamin B2 1.25 μM, vitamin D3 0.25 μM, 48 hours, 20 ng/ml NGF
Structure (SMILES),"observed mean neurite outgrowth, percentage relative to control (100%) [1]","observed mean neurite outgrowth, percentage relative to control (100%) (FIG. 8 plate: BA 200 μM, B2 0.25 μM, DHA 2.5 μM, D3 0.25 μM, PC 20 μM)"
"CC/C=C\C/C=C\C/C=C\C/C=C\C/C=C\CCCC(=O)O [EPA, eicosapentaenoic acid]",increased neurite outgrowth,
"CC/C=C\C/C=C\C/C=C\C/C=C\C/C=C\C/C=C\CCC(=O)O [DHA, docosahexaenoic acid]",increased neurite outgrowth,increased neurite outgrowth more than supplementation of vitamin B2 and D3 alone

# Source: US20260151370A1, “Nutritional composition for neurodegeneration and neurotrauma” (N.V. Nutricia, priority 2023, published 2026)
